The test concerns the target endogenous ING1 (INhibitor of Growth 1) (human (endogenous in HEK293)) (UniProt Q9UK53). As to the kind of experiment: co-IP; untransfected HEK293 cells, lysed in RIPA buffer, immunoprecipitated with mouse anti-ING1 on protein G-Sepharose (4°C, 3 hrs), immunoblotted for the partner; cells untreated or exposed to 40 J/m^2 UV; anti-GST immunoprecipitate as negative control. A general note: In western blotting, separated proteins are transferred to a membrane and probed.

Amino acid sequences for entries named in this document (tags omitted). A change or cut given only in a name is not applied to a line headed by its entry.
UniProt Q9UK53: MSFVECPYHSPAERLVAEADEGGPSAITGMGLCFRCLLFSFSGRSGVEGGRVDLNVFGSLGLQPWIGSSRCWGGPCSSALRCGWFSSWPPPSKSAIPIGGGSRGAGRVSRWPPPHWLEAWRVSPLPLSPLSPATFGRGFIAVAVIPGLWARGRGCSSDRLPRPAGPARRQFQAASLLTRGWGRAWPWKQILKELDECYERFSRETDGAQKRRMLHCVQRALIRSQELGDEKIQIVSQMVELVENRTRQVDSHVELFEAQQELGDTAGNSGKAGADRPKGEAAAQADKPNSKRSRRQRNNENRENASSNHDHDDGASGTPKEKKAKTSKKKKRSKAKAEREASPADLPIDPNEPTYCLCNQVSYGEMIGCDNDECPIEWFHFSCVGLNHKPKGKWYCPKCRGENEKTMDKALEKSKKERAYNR
UniProt Q92878: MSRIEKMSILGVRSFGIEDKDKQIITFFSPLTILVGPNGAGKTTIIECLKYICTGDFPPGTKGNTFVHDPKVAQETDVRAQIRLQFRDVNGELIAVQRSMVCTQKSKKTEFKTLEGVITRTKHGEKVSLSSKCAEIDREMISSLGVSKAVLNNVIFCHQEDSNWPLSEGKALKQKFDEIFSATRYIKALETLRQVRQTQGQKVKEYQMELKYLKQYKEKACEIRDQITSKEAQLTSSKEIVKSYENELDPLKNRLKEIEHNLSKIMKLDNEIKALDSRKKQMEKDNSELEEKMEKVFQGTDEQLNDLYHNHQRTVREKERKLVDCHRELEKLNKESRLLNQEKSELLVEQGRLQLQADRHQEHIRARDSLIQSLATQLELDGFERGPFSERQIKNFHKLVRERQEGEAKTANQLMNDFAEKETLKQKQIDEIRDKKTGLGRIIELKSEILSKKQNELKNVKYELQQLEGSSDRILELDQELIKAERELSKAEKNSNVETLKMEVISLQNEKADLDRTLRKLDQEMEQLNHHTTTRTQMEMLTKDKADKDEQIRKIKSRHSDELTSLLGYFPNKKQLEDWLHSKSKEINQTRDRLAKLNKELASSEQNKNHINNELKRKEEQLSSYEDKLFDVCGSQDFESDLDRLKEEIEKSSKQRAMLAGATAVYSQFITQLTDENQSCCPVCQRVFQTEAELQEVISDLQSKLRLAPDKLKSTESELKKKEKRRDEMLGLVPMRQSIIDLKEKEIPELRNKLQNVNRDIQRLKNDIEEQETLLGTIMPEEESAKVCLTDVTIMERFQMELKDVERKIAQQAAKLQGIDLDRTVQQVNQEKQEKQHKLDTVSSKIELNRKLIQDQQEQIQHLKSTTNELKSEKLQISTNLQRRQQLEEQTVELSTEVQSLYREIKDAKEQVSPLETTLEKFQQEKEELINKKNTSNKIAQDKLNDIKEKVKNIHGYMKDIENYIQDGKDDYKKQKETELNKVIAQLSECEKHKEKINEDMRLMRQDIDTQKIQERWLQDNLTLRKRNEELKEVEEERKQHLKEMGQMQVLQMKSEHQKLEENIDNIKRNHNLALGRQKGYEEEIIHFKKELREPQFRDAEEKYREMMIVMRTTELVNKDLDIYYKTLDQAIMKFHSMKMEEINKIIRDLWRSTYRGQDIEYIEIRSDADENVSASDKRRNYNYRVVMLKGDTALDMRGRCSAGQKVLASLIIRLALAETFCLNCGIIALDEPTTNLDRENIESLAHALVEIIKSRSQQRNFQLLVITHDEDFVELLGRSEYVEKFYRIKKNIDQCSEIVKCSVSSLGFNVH

These are yes or no findings as the source states them, for the method shown. Binding seen in cells or lysates may run through a third protein. Binding calls can cover weak binding; strength is not graded here.

For the substance “endogenous RAD50 (from UniProt Q92878 1-1312)”, the binding result is listed as “binds”.
